Measurements reported in PubChem BioAssay AID1508597 (Cure First, 2020)

Aim: 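Genes whose silencing sensitises or protects ovarian cancer cells against rucaparib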 (primary screen)
System: human ovarian carcinoma lines grown from tumours: OCI-P5x (papillary serous) and OCI-C5x (clear cell)
Reagent: siRNA pool against human genes, 1.25 pmol siRNA per well
Timing: 72 h or 96 h, depending on the cell culture
Conditions: rucaparib 20 µM (about IC30) or vehicle, present until read-out
Rucaparib or vehicle: Vehicle
Cell line: OCI-P5x (serous)
Read-out: 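ATP luminescence measured at 72 or 96 h according to the culture, then normalised and expressed as percent viability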
Scale: viability, normalised: higher = more viable cells remaining
Hit rule: 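a well counts as a hit if its normalised viability is under 80 percent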
Calls: active = viability under 80%; inactive = viability 80% or more
This is a random part of the about 2,100 reagents, under one of the conditions tested. 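Calls flag viability under 80% in either arm, not effects specific to rucaparib; the reference for percent is not stated.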 A reagent listed more than once was tested more than once; the source does not tell the runs apart. Not given: the 100% reference.

TAF12, technical replicate 1 scored viability, normalised (%) = 66; active.
With TAF12, technical replicate 2, the entry reads viability, normalised (%) = 74.4; active.
TAF12, technical replicate 3 gave viability, normalised (%) = 62.7; active.
ID4, technical replicate 1 gave viability, normalised (%) = 66.6; active.
For ID4, technical replicate 2 the deposit lists viability, normalised (%) = 66.3; active.
For ID4, technical replicate 3, the values are viability, normalised (%) = 55.8; active.
With PHF13, technical replicate 1, the values are viability, normalised (%) = 33.4; active.
For PHF13, technical replicate 2 the deposit lists viability, normalised (%) = 38.1; active.
With PHF13, technical replicate 3 the deposit lists viability, normalised (%) = 47.5; active.
PIN1, technical replicate 1 scored viability, normalised (%) = 72.9; active.
PIN1, technical replicate 2 scored viability, normalised (%) = 60; active.
For PIN1, technical replicate 3, the entry reads viability, normalised (%) = 76; active.
With ELAC1, technical replicate 1, the values are viability, normalised (%) = 87.5; inactive.
With ELAC1, technical replicate 2 the deposit lists viability, normalised (%) = 69.1; active.
ELAC1, technical replicate 3 gave viability, normalised (%) = 84.1; inactive.
SMPD4, technical replicate 1 scored viability, normalised (%) = 64.5; active.
SMPD4, technical replicate 2 scored viability, normalised (%) = 62; active.
For SMPD4, technical replicate 3, the values are viability, normalised (%) = 70.3; active.
For MLLT1, technical replicate 1, the entry reads viability, normalised (%) = 107; inactive.
With MLLT1, technical replicate 2, the values are viability, normalised (%) = 111; inactive.
MLLT1, technical replicate 3 showed viability, normalised (%) = 94.3; inactive.
With RIPK1, technical replicate 1, the values are viability, normalised (%) = 54.5; active.
With RIPK1, technical replicate 2, the entry reads viability, normalised (%) = 81.5; inactive.
RIPK1, technical replicate 3 showed viability, normalised (%) = 77.1; active.
With BRDT, technical replicate 1 the deposit lists viability, normalised (%) = 54; active.
BRDT, technical replicate 1 scored viability, normalised (%) = 69.9; active.
For BRDT, technical replicate 2, the values are viability, normalised (%) = 71.2; active.
With BRDT, technical replicate 2, the entry reads viability, normalised (%) = 44.9; active.
With BRDT, technical replicate 3 the deposit lists viability, normalised (%) = 80.9; inactive.
For BRDT, technical replicate 3, the values are viability, normalised (%) = 62.9; active.
With SATB1, technical replicate 1, the entry reads viability, normalised (%) = 63.8; active.
SATB1, technical replicate 2 gave viability, normalised (%) = 63.5; active.
SATB1, technical replicate 3 gave viability, normalised (%) = 75; active.
PRKY, technical replicate 1 gave viability, normalised (%) = 63.8; active.
For PRKY, technical replicate 2 the deposit lists viability, normalised (%) = 71.9; active.
With PRKY, technical replicate 3, the entry reads viability, normalised (%) = 76.5; active.
For BRPF1, technical replicate 1 the deposit lists viability, normalised (%) = 76.8; active.
For BRPF1, technical replicate 2, the entry reads viability, normalised (%) = 99.9; inactive.
With BRPF1, technical replicate 3, the values are viability, normalised (%) = 59.8; active.
COQ8B, technical replicate 1 scored viability, normalised (%) = 72.4; active.
For COQ8B, technical replicate 2 the deposit lists viability, normalised (%) = 76.2; active.
COQ8B, technical replicate 3 showed viability, normalised (%) = 86.5; inactive.
